Measured values published in publication PMC7072417.
Read-outs that look alike come from different tables or passages of the source. Results are given in words; binding and its absence hold for the method and conditions named. In cells and extracts the contact can be indirect. Some entries that bind do so weakly or less than the wild type. Blank lines part the entries; values can stand above or below the molecule they belong to.

By UniProt entry, the sequences of proteins in these tests, tags left out.
UniProt P68101: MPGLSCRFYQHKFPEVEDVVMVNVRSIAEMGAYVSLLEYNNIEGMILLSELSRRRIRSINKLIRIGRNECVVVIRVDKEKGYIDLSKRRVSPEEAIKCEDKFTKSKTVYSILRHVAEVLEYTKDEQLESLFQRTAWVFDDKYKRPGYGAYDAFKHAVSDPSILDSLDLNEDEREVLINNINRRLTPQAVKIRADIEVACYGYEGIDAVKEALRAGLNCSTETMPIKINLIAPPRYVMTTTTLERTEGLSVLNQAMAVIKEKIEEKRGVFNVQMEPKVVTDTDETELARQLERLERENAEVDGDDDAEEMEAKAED

Experiments:
Assay in all cases: co-IP; endogenous proteins immunoprecipitated from H9c2 lysates (non-denaturing lysis buffer: 20 mM Tris-HCl, 137 mM NaCl, 1% Triton X-100, 2 mM EDTA, pH 8) with anti-SIRT1, anti-eIF2α, anti-eEF2K or anti-eEF2 antibodies on G magnetic beads; Western blot; mouse and rabbit IgG as controls; for eIF2α cells treated or not with 10 μg/mL tunicamycin
[1] = target: T1, eukaryotic elongation factor-2 kinase (rat (endogenous in H9c2)) (UniProt P70531)
T1 sequence: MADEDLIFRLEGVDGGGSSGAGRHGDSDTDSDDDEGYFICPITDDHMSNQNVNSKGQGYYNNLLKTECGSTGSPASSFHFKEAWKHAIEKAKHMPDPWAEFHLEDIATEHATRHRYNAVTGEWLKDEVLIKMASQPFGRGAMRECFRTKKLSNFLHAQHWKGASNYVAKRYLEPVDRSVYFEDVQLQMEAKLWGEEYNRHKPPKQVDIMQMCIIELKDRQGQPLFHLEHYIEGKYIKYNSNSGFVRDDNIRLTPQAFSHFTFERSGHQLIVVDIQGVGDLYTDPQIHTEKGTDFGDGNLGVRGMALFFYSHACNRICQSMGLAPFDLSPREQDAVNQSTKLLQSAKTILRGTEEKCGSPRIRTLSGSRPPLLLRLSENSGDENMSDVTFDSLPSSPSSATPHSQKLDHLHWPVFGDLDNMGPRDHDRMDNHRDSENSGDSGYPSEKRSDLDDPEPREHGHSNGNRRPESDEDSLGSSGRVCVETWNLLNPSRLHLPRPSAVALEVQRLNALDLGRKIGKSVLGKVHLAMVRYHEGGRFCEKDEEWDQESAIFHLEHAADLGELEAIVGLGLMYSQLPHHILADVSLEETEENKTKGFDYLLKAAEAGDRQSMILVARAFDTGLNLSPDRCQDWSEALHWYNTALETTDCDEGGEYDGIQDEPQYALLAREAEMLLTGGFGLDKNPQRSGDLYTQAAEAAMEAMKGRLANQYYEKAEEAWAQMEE

[2] = target: T1, eukaryotic elongation factor-2 kinase (rat (endogenous in H9c2)); remark: listed apart in the source
[3] = target: T2, Sirtuin 1 (rat (endogenous in H9c2))
T2 sequence: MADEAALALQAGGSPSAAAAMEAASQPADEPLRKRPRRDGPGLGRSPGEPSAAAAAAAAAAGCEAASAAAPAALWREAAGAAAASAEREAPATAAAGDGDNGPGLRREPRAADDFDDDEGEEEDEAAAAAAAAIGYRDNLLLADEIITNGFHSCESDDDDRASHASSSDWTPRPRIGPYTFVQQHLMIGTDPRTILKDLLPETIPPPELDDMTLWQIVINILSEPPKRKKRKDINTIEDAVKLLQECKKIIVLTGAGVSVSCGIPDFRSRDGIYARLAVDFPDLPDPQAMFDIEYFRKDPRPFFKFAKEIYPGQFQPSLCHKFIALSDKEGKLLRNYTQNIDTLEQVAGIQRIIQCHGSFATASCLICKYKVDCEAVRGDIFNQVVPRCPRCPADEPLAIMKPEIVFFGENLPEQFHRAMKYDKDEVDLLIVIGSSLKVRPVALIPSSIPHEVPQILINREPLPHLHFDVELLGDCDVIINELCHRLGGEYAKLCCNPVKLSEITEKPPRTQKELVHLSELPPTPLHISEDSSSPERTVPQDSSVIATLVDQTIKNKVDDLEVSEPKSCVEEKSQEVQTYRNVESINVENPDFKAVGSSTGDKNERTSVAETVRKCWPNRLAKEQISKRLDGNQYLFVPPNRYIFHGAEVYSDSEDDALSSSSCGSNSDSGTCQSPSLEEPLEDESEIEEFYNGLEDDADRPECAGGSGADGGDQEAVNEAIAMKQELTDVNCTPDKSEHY

binding [1]: binds
Molecule: eIF2α (from UniProt P68101 1-315)

binding [2]: no binding
B1: Sirtuin 1 (enzyme, UniProt A0A0G2JZ79 1-741)
chain: MADEAALALQAGGSPSAAAAMEAASQPADEPLRKRPRRDGPGLGRSPGEPSAAAAAAAAAAGCEAASAAAPAALWREAAGAAAASAEREAPATAAAGDGDNGPGLRREPRAADDFDDDEGEEEDEAAAAAAAAIGYRDNLLLADEIITNGFHSCESDDDDRASHASSSDWTPRPRIGPYTFVQQHLMIGTDPRTILKDLLPETIPPPELDDMTLWQIVINILSEPPKRKKRKDINTIEDAVKLLQECKKIIVLTGAGVSVSCGIPDFRSRDGIYARLAVDFPDLPDPQAMFDIEYFRKDPRPFFKFAKEIYPGQFQPSLCHKFIALSDKEGKLLRNYTQNIDTLEQVAGIQRIIQCHGSFATASCLICKYKVDCEAVRGDIFNQVVPRCPRCPADEPLAIMKPEIVFFGENLPEQFHRAMKYDKDEVDLLIVIGSSLKVRPVALIPSSIPHEVPQILINREPLPHLHFDVELLGDCDVIINELCHRLGGEYAKLCCNPVKLSEITEKPPRTQKELVHLSELPPTPLHISEDSSSPERTVPQDSSVIATLVDQTIKNKVDDLEVSEPKSCVEEKSQEVQTYRNVESINVENPDFKAVGSSTGDKNERTSVAETVRKCWPNRLAKEQISKRLDGNQYLFVPPNRYIFHGAEVYSDSEDDALSSSSCGSNSDSGTCQSPSLEEPLEDESEIEEFYNGLEDDADRPECAGGSGADGGDQEAVNEAIAMKQELTDVNCTPDKSEHY

binding [3]: no binding
B2: eukaryotic elongation factor-2 kinase (enzyme, UniProt P70531 1-724)
chain: MADEDLIFRLEGVDGGGSSGAGRHGDSDTDSDDDEGYFICPITDDHMSNQNVNSKGQGYYNNLLKTECGSTGSPASSFHFKEAWKHAIEKAKHMPDPWAEFHLEDIATEHATRHRYNAVTGEWLKDEVLIKMASQPFGRGAMRECFRTKKLSNFLHAQHWKGASNYVAKRYLEPVDRSVYFEDVQLQMEAKLWGEEYNRHKPPKQVDIMQMCIIELKDRQGQPLFHLEHYIEGKYIKYNSNSGFVRDDNIRLTPQAFSHFTFERSGHQLIVVDIQGVGDLYTDPQIHTEKGTDFGDGNLGVRGMALFFYSHACNRICQSMGLAPFDLSPREQDAVNQSTKLLQSAKTILRGTEEKCGSPRIRTLSGSRPPLLLRLSENSGDENMSDVTFDSLPSSPSSATPHSQKLDHLHWPVFGDLDNMGPRDHDRMDNHRDSENSGDSGYPSEKRSDLDDPEPREHGHSNGNRRPESDEDSLGSSGRVCVETWNLLNPSRLHLPRPSAVALEVQRLNALDLGRKIGKSVLGKVHLAMVRYHEGGRFCEKDEEWDQESAIFHLEHAADLGELEAIVGLGLMYSQLPHHILADVSLEETEENKTKGFDYLLKAAEAGDRQSMILVARAFDTGLNLSPDRCQDWSEALHWYNTALETTDCDEGGEYDGIQDEPQYALLAREAEMLLTGGFGLDKNPQRSGDLYTQAAEAAMEAMKGRLANQYYEKAEEAWAQMEE
